Data as given in patent publication EP3892267A1, “C[…] FOR LYMPHOMA” (Université de Paris, priority 2020, dated 2021).
At least one compound was matched to its structure with a doubt left.

How the values were obtained:
[1] = system: OCI-LY19 cell line; assay: Annexin V binding assay (apoptosis, flow cytometry); type: cell-based, Human; conditions: OciLy19
[2] = system: MD901 cell line; assay: as above; type: cell-based, Human
[3] = rapamycin 20 nM along with 2 UI/mL Kidrolase
[4] = rapamycin 20 nM along with metformin 2.5mM

CO[C@H]1C[C@@H]2CC[C@@H](C)[C@@](O)(O2)C(=O)C(=O)N2CCCC[C@H]2C(=O)O[C@H]([C@H](C)C[C@@H]2CC[C@@H](O)[C@H](OC)C2)CC(=O)[C@H](C)/C=C(\C)[C@@H](O)[C@@H](OC)C(=O)[C@H](C)C[C@H](C)/C=C/C=C/C=C/1C [rapamycin, Rapamycin]
effect on apoptotic effect of L-asparaginase [1, 3]: antagonizes
effect on apoptotic effect of metformin [1, 4]: antagonizes
effect on apoptotic effect of L-asparaginase [2, 3]: antagonizes
effect on apoptotic effect of metformin [2, 4]: antagonizes
impact of rapamycin treatment on apoptosis induction or cancer cell death ([2]; sequential: first metformin and L-asparaginase, 24 hours later rapamycin 20 nM for 24h): no negative impact
